Laboratory results reported in PubChem BioAssay AID1671190 (National Center for Advancing Translational Sciences (NCATS), 2021).
In all, about 580,000 compounds went through this assay and about 6,100 (1.1%) were called active. The shares of active, inactive and inconclusive entries below differ from those in the screen. Calls come from the whole dose curve; as a rule, active = well fitted inhibition curve with a large enough effect; inconclusive = small, poorly fitted or top-dose-only effect, or another doubt; inactive = no such curve, though single readings can be large or run the other way. Where the call is inconclusive, the potency comes from a doubtful curve fit.

By UniProt entry, the sequences of proteins in these tests, tags left out. Where a name states a change or a piece, a line headed by the entry shows the natural chain unless it says otherwise.
UniProt P18054: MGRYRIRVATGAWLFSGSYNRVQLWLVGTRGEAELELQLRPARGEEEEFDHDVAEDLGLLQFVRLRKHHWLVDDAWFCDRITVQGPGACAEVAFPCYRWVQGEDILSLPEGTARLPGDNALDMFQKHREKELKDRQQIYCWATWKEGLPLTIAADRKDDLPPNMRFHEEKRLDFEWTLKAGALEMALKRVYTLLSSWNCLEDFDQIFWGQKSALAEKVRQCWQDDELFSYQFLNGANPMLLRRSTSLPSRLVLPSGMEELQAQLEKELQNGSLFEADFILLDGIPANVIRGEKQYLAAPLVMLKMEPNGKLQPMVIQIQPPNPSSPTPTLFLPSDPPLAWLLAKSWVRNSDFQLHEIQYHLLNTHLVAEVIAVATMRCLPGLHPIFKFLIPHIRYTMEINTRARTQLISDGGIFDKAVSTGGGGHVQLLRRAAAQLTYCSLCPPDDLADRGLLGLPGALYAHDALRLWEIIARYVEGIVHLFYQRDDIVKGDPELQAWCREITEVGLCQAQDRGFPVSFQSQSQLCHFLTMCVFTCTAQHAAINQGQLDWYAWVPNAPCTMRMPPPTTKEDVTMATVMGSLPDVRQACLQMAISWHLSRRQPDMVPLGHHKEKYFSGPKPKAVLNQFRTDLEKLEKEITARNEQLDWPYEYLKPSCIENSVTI

target: Polyunsaturated fatty acid lipoxygenase ALOX12 (Homo sapiens) (UniProt P18054); assay: Primary qHTS assay for inhibitors of human arachidonate 12S-lipoxygenase (ALOX12): Round 2; details: purified 12hLO, xylenol orange hydroperoxide absorbance; series mostly up to 108 µM
Summary of the method: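 Purified human 12hLO at 150 nM in 25 mM Hepes, 0.01% Triton X-100, pH 7.0, preincubated 15 min at room temperature with compound. Reaction started with 40 uM arachidonic acid, 30 min at room temperature. Hydroperoxide measured by Fe-xylenol orange, 573/405 nm absorbance ratio.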
Potency is the fitted concentration of half-maximal effect.

Row | SMILES | Potency
1 | CCn1c(/C=C/Nc2ccccc2)[n+](CC)c2ccc(Cl)cc21 | inconclusive: 20 µM [inhibitor, full curve, poor fit]
2 | CCc1ccc(NC(=O)c2cc(=O)c3cc(CC)ccc3o2)cc1 | inconclusive: 28.2 µM [inhibitor, single point]
3 | CN(CCCn1ccc(N)nc1=O)Cc1ccco1 | inconclusive: 15.8 µM [inhibitor, full curve, poor fit]
4 | CC(C)NC(=O)c1nc2c(nnn2Cc2cccc(Cl)c2)c(=O)[nH]1 | inconclusive: 141 µM [inhibitor, single point]
5 | NCCCC(N)(C(=O)O)c1ccccc1 (stereo not given) | inconclusive: 0.708 µM [inhibitor, full curve, poor fit]
6 | Cc1ccc(OCCn2cc(C(=S)N3CCCC3)c3ccccc32)cc1C | inconclusive: 15.8 µM [inhibitor, partial curve, poor fit]
7 | COc1ccc(S(=O)(=O)Nc2ccc(CCc3nc4ccc(C)cc4[nH]3)cc2)cc1 | inconclusive: 35.5 µM [inhibitor, partial curve]
8 | Cn1c(=O)c2c(nc(SCC(=O)N3CCOCC3)n2Cc2ccc(Cl)cc2Cl)n(C)c1=O | inactive
9 | CN(CC(=O)NCCc1cccc2ccccc12)c1ncnc2nc[nH]c12 | inactive
10 | CC(C)(C)C(=O)NC(=S)Nc1cc(C(=O)O)ccc1Cl | inconclusive: 50.1 µM [inhibitor, partial curve, poor fit]
11 | CNCc1c(F)cccc1F | inconclusive: 0.631 µM [inhibitor, full curve, poor fit]
12 | Cc1c(C(=O)NN)sc(=S)n1C | inactive
13 | CS(=O)(=O)N1CCC(NC(=O)c2ccc3ccccc3n2)CC1 | inconclusive: 25.1 µM [inhibitor, single point]
14 | COC(=O)c1c(C)sc(-c2c(-c3ccc4c(c3)OCCO4)[nH]c3c2c(=O)n(C)c(=O)n3C)c1O | inactive
15 | COC(=O)c1ccc(SCc2cnc(Cl)s2)cc1 | inconclusive: 56.2 µM [inhibitor, partial curve, poor fit]
16 | c1ccc(-c2ccc(CNCCCn3ccnc3)cc2)cc1 | inconclusive: 44.7 µM [inhibitor, partial curve, poor fit]
17 | CCN(CC)C1c2cccc3cccc(c23)C1NS(=O)(=O)c1ccccc1 (stereo not given) | inactive
18 | COc1cc(C2C(=O)N(C3CCCCCC3)CC(=O)N2CCc2ccccc2)ccc1OC(C)C (stereo not given) | inactive
19 | O=C(CCl)N1CCN(CC(=O)N2CCCC2)CC1 | inconclusive: 31.6 µM [inhibitor, partial curve, poor fit]
20 | Cc1ccc2c(c1)/C(=N/O)CCS2 | inconclusive: 15.8 µM [inhibitor, partial curve, poor fit]
21 | O=S(=O)(Cc1cc(N2CCOCC2)nc(-c2ccccn2)n1)c1ccccc1 | inactive
22 | Cc1ccc(C(C)NC(=O)CSc2nc(CN3CCOCC3)nc3ccccc23)cc1C (stereo not given) | inconclusive: 50.1 µM [inhibitor, partial curve, poor fit]
23 | COc1cccc(OC)c1NC(=O)CN1CCN(C)CC1 | inconclusive: 0.224 µM [inhibitor, full curve, poor fit]

Filtered by structure, those above containing an aryl thioether with sulfur outside any ring
Row | SMILES | Potency
8 | Cn1c(=O)c2c(nc(SCC(=O)N3CCOCC3)n2Cc2ccc(Cl)cc2Cl)n(C)c1=O | inactive
15 | COC(=O)c1ccc(SCc2cnc(Cl)s2)cc1 | inconclusive: 56.2 µM [inhibitor, partial curve, poor fit]
22 | Cc1ccc(C(C)NC(=O)CSc2nc(CN3CCOCC3)nc3ccccc23)cc1C (stereo not given) | inconclusive: 50.1 µM [inhibitor, partial curve, poor fit]

Next part:

Row | SMILES | Potency
24 | Cc1c(OCC(=O)Nc2cc(Cl)cc(Cl)c2)c(=O)ccn1C | inconclusive: 35.5 µM [inhibitor, partial curve, poor fit]
25 | S=C(NCC1COc2ccccc2O1)Nc1ccccc1 (stereo not given) | inconclusive: 50.1 µM [inhibitor, partial curve, poor fit]
26 | Cc1cc2cc(CNC(=S)NCc3ccccc3)ccc2n1C | active: 39.8 µM
27 | CCCCNC(C(=O)c1c[nH]c2c(CC)cccc12)c1ccccc1 (stereo not given) | inconclusive: 50.1 µM [inhibitor, single point]
28 | CC1=Nc2cc(C(=O)NCCCN3CCOCC3)ccc2Sc2c(C)ccc(C)c21 | inactive
29 | Cc1cc(/C=C/c2nc3ccccc3s2)cc(C)c1O | inconclusive: 39.8 µM [inhibitor, partial curve, poor fit]
30 | CC(CCN1CCC(C(O)(c2ccccc2)c2ccccc2)CC1)Oc1ccccc1C#N (stereo not given) | inconclusive: 31.6 µM [inhibitor, single point]
31 | C#CCNc1nc(C(C)C)nc2c1nnn2Cc1ccccc1F | inconclusive: 0.562 µM [inhibitor, full curve, poor fit]
32 | CCOc1cc(/C=C/C(=O)Nc2ccc(C(=O)NCCN(CC)CC)cc2)ccc1OCC(C)C | inconclusive: 17.8 µM [inhibitor, partial curve, poor fit]
33 | O=C(NCC(c1ccco1)S(=O)(=O)c1cccs1)c1ccccc1F (stereo not given) | inactive
34 | COc1ccc(CNC(=O)CN(C)Cc2ccccc2F)cc1OC | inconclusive: 126 µM [inhibitor, single point]
35 | c1csc(CNc2ncncc2-c2ccc3c(c2)OCO3)c1 | active: 28.2 µM
36 | CC(C)c1nnc(NC(=O)Cn2ccc3ccc(F)cc32)s1 | inactive
37 | CCCCCCCCOc1ccc(/C=C(/C#N)c2ccccn2)cc1 | inconclusive: 44.7 µM [inhibitor, partial curve, poor fit]
38 | Cc1ccc(CN2CCN(CC(=O)N=Nc3c(O)[nH]c4ccccc34)CC2)cc1 | inactive
39 | O=C(O)Cc1ccc(NCc2ccccc2Cl)cc1 | inconclusive: 20 µM [inhibitor, partial curve]
40 | CCN(CC)c1ccc(NC(=O)c2cc3ccccc3o2)c(C)c1 | inconclusive: 2.82 µM [inhibitor, full curve, poor fit]
41 | O=C(Nc1cccc([N+](=O)[O-])c1)c1ccc2c(c1)C(=O)N(c1ccccn1)C2=O | inconclusive: 89.1 µM [inhibitor, partial curve, poor fit]
42 | O=C(OCc1ccc(F)cc1)c1cc2ccccc2cc1O | inconclusive: 28.2 µM [inhibitor, single point]
43 | COc1ccc(-c2nnc3ccc(SCC(=O)N4CCCCC4)nn23)cc1OC | inactive
44 | Cn1nc(C2CCN(C(=O)c3cccc(Cl)c3)CC2)[nH]c1=O | inactive
45 | O=C(NCc1ccncc1)C1CCN(C(=O)c2ncn3c2COC(c2ccc(F)cc2)C3)CC1 (stereo not given) | inactive
